Assay results as given in the supplement of paper PMC10032668.
The list shows a part of the results. The list holds hits alone, and they repeat only in part.

By UniProt entry, the sequences of proteins in these tests, tags left out.
CALR, P27797, UniProt P27797, whole entry: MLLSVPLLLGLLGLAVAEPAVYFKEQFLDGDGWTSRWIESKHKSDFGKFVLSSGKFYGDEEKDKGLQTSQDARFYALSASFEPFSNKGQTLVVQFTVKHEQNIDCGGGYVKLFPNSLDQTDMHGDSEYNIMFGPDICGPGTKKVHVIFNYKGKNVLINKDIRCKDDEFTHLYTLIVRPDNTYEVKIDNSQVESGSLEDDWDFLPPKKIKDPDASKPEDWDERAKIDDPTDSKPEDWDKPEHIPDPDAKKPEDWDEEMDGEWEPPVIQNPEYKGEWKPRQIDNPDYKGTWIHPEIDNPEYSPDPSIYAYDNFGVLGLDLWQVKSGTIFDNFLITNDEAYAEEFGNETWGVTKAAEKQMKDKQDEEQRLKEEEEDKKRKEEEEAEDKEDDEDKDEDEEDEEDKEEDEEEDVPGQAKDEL

B1: PALLD (peptide)
chain: ILTSSRAFLLSSARK
B2: RP11-620J15.3 (peptide)
chain: KTILSRSLAVKENRE

Experiments:
Assay in all cases: PRISMA enrichment of interactor (LFQ) in peptide spot vs all other peptide spots (log2 fold change); higher = stronger / more specific binding of the interactor to the peptide
AAMP, Q13685 = molecular target: AAMP, Q13685
Method: (§1)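 PRISMA: 15-aa overlapping tiles (offset 8 aa) of 60 microproteins, plus SOS1/GLUT1 control peptides, were spot-synthesized on cellulose membranes in triplicate. Membranes were incubated with benzonase-treated HEK293T lysate, and bound proteins were identified by LC-MS/MS with LFQ. Enrichment is the log2 fold change of each protein in one spot versus all other spots. Only interactors passing the significance cutoff are listed.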

ASCC3, Q8N3C0 = molecular target: ASCC3, Q8N3C0
Method: as §1

ATP5F1D, P30049 = molecular target: ATP5F1D, P30049
Method: as §1

CALR, P27797 = molecular target: CALR, P27797
Method: as §1

CTNNA1, P35221 = molecular target: CTNNA1, P35221
Method: as §1

CTNNBL1, Q8WYA6 = molecular target: CTNNBL1, Q8WYA6
Method: as §1

DAD1, P61803 = molecular target: DAD1, P61803
Method: as §1

INTS2, Q9H0H0 = molecular target: INTS2, Q9H0H0
Method: as §1

IQCB1, Q15051 = molecular target: IQCB1, Q15051
Method: as §1

MDH2, P40926 = molecular target: MDH2, P40926
Method: as §1

MRPL18, Q9H0U6 = molecular target: MRPL18, Q9H0U6
Method: as §1

SLC27A4, Q6P1M0 = molecular target: SLC27A4, Q6P1M0
Method: as §1

TTC27, Q6P3X3 = molecular target: TTC27, Q6P3X3
Method: as §1

USP9X, Q93008 = molecular target: USP9X, Q93008
Method: as §1

ABCF2, Q9UG63 = molecular target: ABCF2, Q9UG63
Method: as §1

ALKBH5, Q6P6C2 = molecular target: ALKBH5, Q6P6C2
Method: as §1

AP3S1, Q92572 = molecular target: AP3S1, Q92572
Method: as §1

ARF4, P18085 = molecular target: ARF4, P18085
Method: as §1

CDCA8, Q53HL2 = molecular target: CDCA8, Q53HL2
Method: as §1

DHCR24, Q15392 = molecular target: DHCR24, Q15392
Method: as §1

DHX9, Q08211 = molecular target: DHX9, Q08211
Method: as §1

DIMT1, Q9UNQ2 = molecular target: DIMT1, Q9UNQ2
Method: as §1

ECD, O95905 = molecular target: ECD, O95905
Method: as §1

GNL3L, Q9NVN8 = molecular target: GNL3L, Q9NVN8
Method: as §1

KPNA2, P52292 = molecular target: KPNA2, P52292
Method: as §1

MRPS31, Q92665 = molecular target: MRPS31, Q92665
Method: as §1

NOB1, Q9ULX3 = molecular target: NOB1, Q9ULX3
Method: as §1

POLE, Q07864 = molecular target: POLE, Q07864
Method: as §1

RAVER1, Q8IY67 = molecular target: RAVER1, Q8IY67
Method: as §1

SCYL2, Q6P3W7 = molecular target: SCYL2, Q6P3W7
Method: as §1

TRIM28, Q13263 = molecular target: TRIM28, Q13263
Method: as §1

USP15, Q9Y4E8 = molecular target: USP15, Q9Y4E8
Method: as §1

XAB2, Q9HCS7 = molecular target: XAB2, Q9HCS7
Method: as §1

Binder | PRISMA enrichment of interactor (log2) (AAMP, Q13685) | PRISMA enrichment of interactor (log2) (ASCC3, Q8N3C0) | PRISMA enrichment of interactor (log2) (ATP5F1D, P30049) | PRISMA enrichment of interactor (log2) (CALR, P27797) | PRISMA enrichment of interactor (log2) (CTNNA1, P35221) | PRISMA enrichment of interactor (log2) (CTNNBL1, Q8WYA6) | PRISMA enrichment of interactor (log2) (DAD1, P61803) | PRISMA enrichment of interactor (log2) (INTS2, Q9H0H0) | PRISMA enrichment of interactor (log2) (IQCB1, Q15051) | PRISMA enrichment of interactor (log2) (MDH2, P40926) | PRISMA enrichment of interactor (log2) (MRPL18, Q9H0U6) | PRISMA enrichment of interactor (log2) (SLC27A4, Q6P1M0) | PRISMA enrichment of interactor (log2) (TTC27, Q6P3X3) | PRISMA enrichment of interactor (log2) (USP9X, Q93008) | PRISMA enrichment of interactor (log2) (ABCF2, Q9UG63) | PRISMA enrichment of interactor (log2) (ALKBH5, Q6P6C2) | PRISMA enrichment of interactor (log2) (AP3S1, Q92572) | PRISMA enrichment of interactor (log2) (ARF4, P18085) | PRISMA enrichment of interactor (log2) (CDCA8, Q53HL2) | PRISMA enrichment of interactor (log2) (DHCR24, Q15392) | PRISMA enrichment of interactor (log2) (DHX9, Q08211) | PRISMA enrichment of interactor (log2) (DIMT1, Q9UNQ2) | PRISMA enrichment of interactor (log2) (ECD, O95905) | PRISMA enrichment of interactor (log2) (GNL3L, Q9NVN8) | PRISMA enrichment of interactor (log2) (KPNA2, P52292) | PRISMA enrichment of interactor (log2) (MRPS31, Q92665) | PRISMA enrichment of interactor (log2) (NOB1, Q9ULX3) | PRISMA enrichment of interactor (log2) (POLE, Q07864) | PRISMA enrichment of interactor (log2) (RAVER1, Q8IY67) | PRISMA enrichment of interactor (log2) (SCYL2, Q6P3W7) | PRISMA enrichment of interactor (log2) (TRIM28, Q13263) | PRISMA enrichment of interactor (log2) (USP15, Q9Y4E8) | PRISMA enrichment of interactor (log2) (XAB2, Q9HCS7)
B1 | 4.57 | 6.02 | 5.18 | 6.12 | 4.43 | 6.29 | 10.2 | 4.86 | 4.07 | 5.27 | 4.69 | 5.34 | 4.58 | 6.9 |  |  |  |  |  |  |  |  |  |  |  |  |  |  |  |  |  |  | 
B2 | 4.32 |  |  |  |  |  |  |  |  |  |  |  |  |  | 5.24 | 4.36 | 5.27 | 5.95 | 4.62 | 4.42 | 5.24 | 5.32 | 4.8 | 5.9 | 5.2 | 4.62 | 5.16 | 4.13 | 5.32 | 5.49 | 4.51 | 5 | 4.87
